In PMC9370035, “Identification of 3-Oxindole Derivatives as Small Molecule HIV-1 Inhibitors Targeting Tat-Mediated Viral Transcription” (Molecules, 2022) one finds IC50 data, which are given here for one compound.

The subject of this test is Tat-mediated HIV-1 transcription. The experiment in a line: microbe, parasite or virus in culture. In kind it is cell-based. To be noted: Human immunodeficiency virus 1, 24 h, read-out: IC50 (inhibition of Tat-mediated HIV-1 transcription). How it is done:
bl-DTR (TZM-bl-derived dual Tat reporter) cells derived from TZM-bl cells by insertion of two doxycycline-inducible lentiviral vector-expressing flag-tagged tat and Renilla-luciferase (R-Luc) genes were used to determine simultaneously both activities of Tat-mediated HIV-1 transcription and general cellular transcription, as described previously. Determination of the inhibitory effect of the compounds on Tat-mediated transcription was performed as described previously. In brief, 1 × 10^4 of bl-DTR cells cultured in 96-well plates were treated with compounds at a final concentration of 3 μM (Figure 3C) or with 1:2 serially diluted compounds at concentrations ranging from 0 to 25 μM (Figure 4 and Table 3). Subsequently, doxycycline was treated at a final concentration of 50 ng/mL to induce Tat-mediated F-Luc and R-Luc. At 24 h after treatment, the activities of F-Luc and R-Luc were determined by using a Dual-Glo™ luciferase assay system (Promega, Madison, WI, USA) according to the manufacturer’s protocols. The data are presented as a percentage relative to the DMSO control (vehicle) in the presence of doxycycline, and the experiment was performed in triplicate.

The structures appear in SMILES notation.

With `CC[C@H](CO)Nc1nc(NCc2ccccc2)c2ncn(C(C)C)c2n1` [seliciclib, Seliciclib, reference compound], the IC50 amounted to 2410 ± 70 nM.

In general, IC50 refers to the midpoint of a concentration-inhibition curve.
